According to PMC8373905:
Results are given in words; binding and its absence hold for the method and conditions named. In cells and extracts the contact can be indirect. Some results given as binding are weak or reduced against the parent protein; the word gives no strength.

By UniProt entry, the sequences of proteins in these tests, tags left out.
UniProt P11387: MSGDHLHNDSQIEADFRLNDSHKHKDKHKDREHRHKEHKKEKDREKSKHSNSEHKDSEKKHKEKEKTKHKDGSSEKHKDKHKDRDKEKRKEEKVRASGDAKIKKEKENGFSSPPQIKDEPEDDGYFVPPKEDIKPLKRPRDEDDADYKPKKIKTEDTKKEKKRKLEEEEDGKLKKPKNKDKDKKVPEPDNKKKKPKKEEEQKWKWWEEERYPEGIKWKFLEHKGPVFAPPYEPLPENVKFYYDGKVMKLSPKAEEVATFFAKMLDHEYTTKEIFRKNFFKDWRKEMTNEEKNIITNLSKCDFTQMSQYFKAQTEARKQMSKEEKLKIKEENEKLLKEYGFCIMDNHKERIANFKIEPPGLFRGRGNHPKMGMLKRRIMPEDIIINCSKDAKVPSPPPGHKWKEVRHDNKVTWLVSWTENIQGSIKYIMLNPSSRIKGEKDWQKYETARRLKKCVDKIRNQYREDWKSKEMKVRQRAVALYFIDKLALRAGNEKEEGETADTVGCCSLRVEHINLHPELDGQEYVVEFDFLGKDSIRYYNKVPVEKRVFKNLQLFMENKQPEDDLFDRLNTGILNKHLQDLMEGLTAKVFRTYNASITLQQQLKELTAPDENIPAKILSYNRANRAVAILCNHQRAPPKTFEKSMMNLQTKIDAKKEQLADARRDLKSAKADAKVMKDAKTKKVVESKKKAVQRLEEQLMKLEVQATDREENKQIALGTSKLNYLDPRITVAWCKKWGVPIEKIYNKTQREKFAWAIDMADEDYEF
UniProt O00487: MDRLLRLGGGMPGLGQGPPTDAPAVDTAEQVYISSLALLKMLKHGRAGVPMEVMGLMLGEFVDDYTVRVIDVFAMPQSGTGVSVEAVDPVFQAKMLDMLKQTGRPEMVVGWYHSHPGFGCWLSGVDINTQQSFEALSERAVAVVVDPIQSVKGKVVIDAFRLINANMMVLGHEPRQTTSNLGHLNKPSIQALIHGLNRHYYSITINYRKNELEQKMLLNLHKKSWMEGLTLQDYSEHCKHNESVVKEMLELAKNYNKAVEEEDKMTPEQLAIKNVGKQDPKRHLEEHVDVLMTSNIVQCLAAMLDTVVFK
UniProt Q93009: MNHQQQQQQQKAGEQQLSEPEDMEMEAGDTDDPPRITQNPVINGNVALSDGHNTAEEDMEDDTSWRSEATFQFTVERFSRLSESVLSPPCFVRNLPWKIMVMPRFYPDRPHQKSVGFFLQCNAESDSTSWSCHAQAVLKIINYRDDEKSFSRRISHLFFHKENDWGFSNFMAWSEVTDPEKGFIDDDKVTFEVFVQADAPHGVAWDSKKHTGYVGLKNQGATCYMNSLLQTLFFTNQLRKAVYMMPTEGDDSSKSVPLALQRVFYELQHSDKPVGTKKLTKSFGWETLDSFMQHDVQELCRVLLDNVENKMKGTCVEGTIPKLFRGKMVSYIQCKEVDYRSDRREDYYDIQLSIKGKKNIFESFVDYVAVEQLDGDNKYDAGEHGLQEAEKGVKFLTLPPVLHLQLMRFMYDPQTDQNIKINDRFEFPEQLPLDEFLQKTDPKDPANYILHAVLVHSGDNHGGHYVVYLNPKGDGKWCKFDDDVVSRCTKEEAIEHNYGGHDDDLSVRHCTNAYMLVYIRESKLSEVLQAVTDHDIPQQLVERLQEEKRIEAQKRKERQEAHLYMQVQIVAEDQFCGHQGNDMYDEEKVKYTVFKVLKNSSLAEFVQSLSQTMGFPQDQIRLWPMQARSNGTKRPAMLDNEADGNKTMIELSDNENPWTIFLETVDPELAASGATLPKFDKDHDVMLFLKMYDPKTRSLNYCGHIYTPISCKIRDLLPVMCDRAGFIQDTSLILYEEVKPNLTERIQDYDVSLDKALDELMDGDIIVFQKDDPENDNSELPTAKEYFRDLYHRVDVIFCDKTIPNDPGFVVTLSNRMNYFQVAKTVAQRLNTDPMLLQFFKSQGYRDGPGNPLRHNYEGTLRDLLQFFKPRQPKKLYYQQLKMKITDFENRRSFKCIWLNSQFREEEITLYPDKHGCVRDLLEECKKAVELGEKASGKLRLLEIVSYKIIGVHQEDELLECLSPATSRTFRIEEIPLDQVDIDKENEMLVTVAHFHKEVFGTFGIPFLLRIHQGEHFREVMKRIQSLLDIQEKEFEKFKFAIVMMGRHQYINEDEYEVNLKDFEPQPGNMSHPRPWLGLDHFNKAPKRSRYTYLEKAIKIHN

Key:
[1] = biological target: 6×His-tagged TOP1 (topoisomerase I) (human) (UniProt P11387); assay: proximity ligation; Duolink PLA in fixed, permeabilised transfected cells; cells treated with PARPi as well
[2] = biological target: 6×His-tagged TOP1 (topoisomerase I) (human) (UniProt P11387); assay: pull-down; His-tag pulldown with Ni-NTA agarose under native conditions from transfected HEK293 lysate treated with benzonase, 10 mM imidazole, overnight 4 °C; cells untreated or treated with CPT, PARGi, PARPi
[3] = biological target: 6×His-tagged TOP1 (topoisomerase I) (human) (UniProt P11387); assay: proximity ligation; Duolink PLA in fixed, permeabilised transfected cells; cells treated with CPT, PARGi or both
PSMD14-FLAG = PSMD14-FLAG (UniProt O00487); assay: co-IP; anti-FLAG M2 IP from transfected HEK293 lysate treated with benzonase, washed with RIPA buffer; cells untreated or treated with CPT (20 µM, 30 min)

binding [2]	binding [3]	binding (PSMD14-FLAG)	Substance	binding [1]
binds	binds		FLAG-USP7 (from UniProt Q93009 1-1102) (enzyme)	no binding (condition: cells treated with PARPi)
		binds	TOP1 (topoisomerase I), endogenous (from UniProt P11387 1-765) (enzyme)	
